Test results published in PMC5187391, “Structural mechanism for the arginine sensing and regulation of CASTOR1 in the mTORC1 signaling pathway” (Cell Discovery, 2016).
No constants are given. Whether binding was seen depends on the method and setting.

Assays:
[1] = biological target: Human CASTOR1 L22R mutant (human) (UniProt Q8WTX7); assay: SEC-MALS; 25 °C; about 400 μg protein injected per run; 15 mM Tris-HCl, pH 8.0, 150 mM NaCl, 2 mM DTT; WTC-015S5 column; both purified
[2] = biological target: Human CASTOR1 I202D mutant (human) (UniProt Q8WTX7); assay: as above

Row | Binder | binding [1] | binding [2]
1 | Human CASTOR1 L22R mutant (protein, UniProt Q8WTX7 1-329) MELHILEHRVRVLSVARPGLWRYTHPLIKLLFLPRRSRCKFFSLTETPEDYTLMVDEEGFKELPPSEFLQVAEATWLVLNVSSHSGAAVQAAGVTKIARSVIAPLAEHHVSVLMLSTYQTDFILVREQDLSVVIHTLAQEFDIYREVGGEPVPVTRDDSSNGFPRTQHGPSPTVHPIQSPQNRFCVLTLDPETLPAIATTLIDVLFYSHSTPKEAASSSPEPSSITFFAFSLIEGYISIVMDAETQKKFPSDLLLTSSSGELWRMVRIGGQPLGFDECGIVAQIAGPLAAADISAYYISTFNFDHALVPEDGIGSVIEVLQRRQEGLAS | no binding | 
2 | Human CASTOR1 I202D mutant (protein, UniProt Q8WTX7 1-329) MELHILEHRVRVLSVARPGLWLYTHPLIKLLFLPRRSRCKFFSLTETPEDYTLMVDEEGFKELPPSEFLQVAEATWLVLNVSSHSGAAVQAAGVTKIARSVIAPLAEHHVSVLMLSTYQTDFILVREQDLSVVIHTLAQEFDIYREVGGEPVPVTRDDSSNGFPRTQHGPSPTVHPIQSPQNRFCVLTLDPETLPAIATTLDDVLFYSHSTPKEAASSSPEPSSITFFAFSLIEGYISIVMDAETQKKFPSDLLLTSSSGELWRMVRIGGQPLGFDECGIVAQIAGPLAAADISAYYISTFNFDHALVPEDGIGSVIEVLQRRQEGLAS |  | no binding
